Experimental data from PMC10627786.
No constants are given. Whether binding was seen depends on the method and setting. Binding seen in cells or lysates may run through a third protein. A yes stands for co-enrichment or nearness to the bait. Other partners may have been found. Where a sequence is shown, tags or fusion partners need not be part of it.

Chains of the proteins cited; added tags and fusions are not shown.
UniProt Q14318: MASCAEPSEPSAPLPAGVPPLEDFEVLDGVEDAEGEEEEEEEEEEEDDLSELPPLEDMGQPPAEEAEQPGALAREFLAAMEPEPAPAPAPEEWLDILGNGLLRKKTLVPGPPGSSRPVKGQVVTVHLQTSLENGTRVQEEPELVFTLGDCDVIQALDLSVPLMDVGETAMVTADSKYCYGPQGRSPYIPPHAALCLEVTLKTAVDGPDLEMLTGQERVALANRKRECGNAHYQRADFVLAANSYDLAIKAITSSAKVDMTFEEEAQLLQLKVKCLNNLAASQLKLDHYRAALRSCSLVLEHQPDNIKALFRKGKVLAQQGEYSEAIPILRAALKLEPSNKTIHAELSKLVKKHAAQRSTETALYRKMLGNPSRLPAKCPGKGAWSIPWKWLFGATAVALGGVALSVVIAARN
UniProt P51648: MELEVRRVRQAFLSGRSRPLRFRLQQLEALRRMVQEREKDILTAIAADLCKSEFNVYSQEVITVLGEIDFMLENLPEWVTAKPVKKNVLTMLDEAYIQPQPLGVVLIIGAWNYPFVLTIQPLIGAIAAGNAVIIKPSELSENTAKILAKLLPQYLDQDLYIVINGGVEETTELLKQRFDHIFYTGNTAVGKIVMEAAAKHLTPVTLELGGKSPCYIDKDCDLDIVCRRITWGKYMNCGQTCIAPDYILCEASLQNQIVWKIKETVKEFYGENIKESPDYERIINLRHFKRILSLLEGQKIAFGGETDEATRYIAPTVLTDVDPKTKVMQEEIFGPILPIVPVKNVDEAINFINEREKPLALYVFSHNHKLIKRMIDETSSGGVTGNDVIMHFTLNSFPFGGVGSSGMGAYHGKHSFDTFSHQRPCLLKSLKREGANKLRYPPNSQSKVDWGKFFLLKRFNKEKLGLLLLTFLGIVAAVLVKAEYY

Legend:
[1] = biological target: T1, PDZD8 fused with BirA*-FLAG (BioID bait) (human) (UniProt Q8NEN9); experiment: proximity labelling; BioID in stable inducible Flp-In T-REx 293 cells expressing BirA*-FLAG baits; mass spectrometry of biotinylated preys; SAINTexpress, two biological replicates per bait, 50 negative control runs, BFDR threshold 1%
T1 sequence: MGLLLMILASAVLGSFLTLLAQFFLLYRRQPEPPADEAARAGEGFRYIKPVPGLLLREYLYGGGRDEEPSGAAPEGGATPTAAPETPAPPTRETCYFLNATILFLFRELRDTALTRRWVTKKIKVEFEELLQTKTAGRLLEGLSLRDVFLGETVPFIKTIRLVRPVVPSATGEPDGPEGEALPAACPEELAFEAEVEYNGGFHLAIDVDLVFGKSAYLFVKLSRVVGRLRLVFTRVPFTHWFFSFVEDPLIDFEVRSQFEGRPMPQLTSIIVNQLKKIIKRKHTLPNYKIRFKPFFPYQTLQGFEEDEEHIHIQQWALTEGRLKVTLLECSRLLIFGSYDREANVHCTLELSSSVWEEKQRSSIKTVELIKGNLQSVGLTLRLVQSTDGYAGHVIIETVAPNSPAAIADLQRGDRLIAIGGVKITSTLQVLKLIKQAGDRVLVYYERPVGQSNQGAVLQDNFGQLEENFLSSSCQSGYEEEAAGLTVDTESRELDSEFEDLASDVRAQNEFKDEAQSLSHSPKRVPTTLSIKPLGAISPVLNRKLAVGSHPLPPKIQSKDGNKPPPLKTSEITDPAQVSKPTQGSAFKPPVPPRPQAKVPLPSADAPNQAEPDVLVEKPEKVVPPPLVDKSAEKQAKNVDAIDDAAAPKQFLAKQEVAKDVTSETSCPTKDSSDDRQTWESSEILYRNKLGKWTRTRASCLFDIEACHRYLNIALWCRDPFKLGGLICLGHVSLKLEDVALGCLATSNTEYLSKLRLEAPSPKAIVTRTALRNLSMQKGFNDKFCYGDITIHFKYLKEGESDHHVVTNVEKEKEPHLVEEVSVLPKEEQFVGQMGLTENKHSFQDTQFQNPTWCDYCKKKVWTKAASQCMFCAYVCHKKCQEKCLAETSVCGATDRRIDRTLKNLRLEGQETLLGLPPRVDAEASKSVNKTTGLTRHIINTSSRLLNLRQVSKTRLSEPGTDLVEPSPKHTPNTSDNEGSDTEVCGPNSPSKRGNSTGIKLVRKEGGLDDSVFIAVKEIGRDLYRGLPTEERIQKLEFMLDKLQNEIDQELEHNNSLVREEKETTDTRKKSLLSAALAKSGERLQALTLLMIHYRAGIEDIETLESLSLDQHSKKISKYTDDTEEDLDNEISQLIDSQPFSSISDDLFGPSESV

[2] = biological target: T2, ESYT1 fused with BirA*-FLAG (BioID bait) (human) (UniProt Q9BSJ8); experiment: as above
T2 sequence: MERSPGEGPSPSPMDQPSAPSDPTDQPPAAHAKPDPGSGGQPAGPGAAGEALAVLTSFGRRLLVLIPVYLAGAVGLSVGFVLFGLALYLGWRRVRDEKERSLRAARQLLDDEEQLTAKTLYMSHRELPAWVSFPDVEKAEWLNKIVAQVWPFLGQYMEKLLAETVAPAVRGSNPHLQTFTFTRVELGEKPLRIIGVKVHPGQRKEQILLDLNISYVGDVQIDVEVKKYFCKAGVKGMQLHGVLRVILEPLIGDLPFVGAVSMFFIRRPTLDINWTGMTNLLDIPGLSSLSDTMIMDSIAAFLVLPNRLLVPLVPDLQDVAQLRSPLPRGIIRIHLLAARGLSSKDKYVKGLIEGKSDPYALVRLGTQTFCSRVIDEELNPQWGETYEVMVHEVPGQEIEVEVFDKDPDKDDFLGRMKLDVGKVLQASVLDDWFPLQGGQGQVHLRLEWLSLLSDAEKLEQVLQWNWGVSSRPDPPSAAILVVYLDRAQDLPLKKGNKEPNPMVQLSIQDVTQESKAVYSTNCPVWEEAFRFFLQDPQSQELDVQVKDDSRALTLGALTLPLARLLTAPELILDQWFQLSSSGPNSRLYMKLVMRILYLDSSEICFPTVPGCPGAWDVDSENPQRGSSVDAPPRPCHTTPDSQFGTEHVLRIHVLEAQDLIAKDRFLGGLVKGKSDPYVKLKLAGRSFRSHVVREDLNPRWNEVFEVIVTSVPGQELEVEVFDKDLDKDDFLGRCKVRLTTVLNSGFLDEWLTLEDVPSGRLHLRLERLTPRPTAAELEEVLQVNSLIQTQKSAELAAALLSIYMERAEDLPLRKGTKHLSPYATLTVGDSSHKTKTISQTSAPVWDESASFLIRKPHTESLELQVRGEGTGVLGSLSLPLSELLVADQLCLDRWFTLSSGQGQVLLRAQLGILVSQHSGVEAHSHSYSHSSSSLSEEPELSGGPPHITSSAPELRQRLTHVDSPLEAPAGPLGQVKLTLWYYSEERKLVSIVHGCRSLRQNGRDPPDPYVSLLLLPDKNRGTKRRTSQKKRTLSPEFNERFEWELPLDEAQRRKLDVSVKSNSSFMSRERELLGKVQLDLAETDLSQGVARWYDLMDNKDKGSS

Row | binding [1] | binding [2] | Substance
1 | binds | binds | FKBP8 (from UniProt Q14318 1-412)
2 | binds | binds | ALDH3A2 (from UniProt P51648 1-485)
